Assay results as given in paper PMC11331741.
No constants are given. Whether binding was seen depends on the method and setting. In cells and extracts the contact can be indirect. Some results given as binding are weak or reduced against the parent protein; the word gives no strength.

Chains of the proteins cited; added tags and fusions are not shown. Lines headed by an entry give the natural chain unless they say otherwise; changes in a name come on top. Residues count along the entry.
UniProt P11802: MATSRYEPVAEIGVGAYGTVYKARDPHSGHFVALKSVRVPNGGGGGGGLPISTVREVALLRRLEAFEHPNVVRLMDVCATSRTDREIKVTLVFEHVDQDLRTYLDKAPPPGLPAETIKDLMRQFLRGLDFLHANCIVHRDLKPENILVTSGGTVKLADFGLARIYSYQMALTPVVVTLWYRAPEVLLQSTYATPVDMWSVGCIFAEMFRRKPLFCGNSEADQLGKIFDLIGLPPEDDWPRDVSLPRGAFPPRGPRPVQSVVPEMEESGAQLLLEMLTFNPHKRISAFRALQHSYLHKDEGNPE
GFP-CDK4-N-term: residues 1-96 of P11802
GFP-CDK4-C-term: residues 96-303 of P11802
UniProt Q9Y297: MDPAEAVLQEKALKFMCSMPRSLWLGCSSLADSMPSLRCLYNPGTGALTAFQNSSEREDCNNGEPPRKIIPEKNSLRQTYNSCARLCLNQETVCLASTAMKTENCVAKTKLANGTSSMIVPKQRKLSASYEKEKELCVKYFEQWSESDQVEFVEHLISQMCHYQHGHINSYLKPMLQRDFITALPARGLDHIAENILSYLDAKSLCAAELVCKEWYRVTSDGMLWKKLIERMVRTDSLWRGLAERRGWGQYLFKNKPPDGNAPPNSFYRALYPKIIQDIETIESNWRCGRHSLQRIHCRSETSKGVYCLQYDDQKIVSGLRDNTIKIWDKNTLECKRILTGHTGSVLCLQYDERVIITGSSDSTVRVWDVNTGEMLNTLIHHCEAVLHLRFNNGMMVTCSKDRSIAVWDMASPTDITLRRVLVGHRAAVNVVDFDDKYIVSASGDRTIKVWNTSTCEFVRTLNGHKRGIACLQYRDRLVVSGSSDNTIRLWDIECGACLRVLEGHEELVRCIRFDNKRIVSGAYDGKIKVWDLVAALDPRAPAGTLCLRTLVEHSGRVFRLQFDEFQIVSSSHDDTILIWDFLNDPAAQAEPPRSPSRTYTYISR

What was measured:
Assay in all cases: co-IP; HA- and GFP-tagged plasmids transiently co-transfected 1:1 into LN229 cells, lysed after 36 h; lysate incubated with anti-HA or anti-GFP mAb magnetic beads for 4-5 h at 4 °C; Western blot
GFP-CDK4-N-term = GFP-CDK4-N-term (UniProt P11802)
GFP-CDK4-C-term = GFP-CDK4-C-term (UniProt P11802)
GFP-CDK4 = GFP-CDK4 (UniProt P11802)

binding (GFP-CDK4-N-term): binds
binding (GFP-CDK4-C-term): no binding
binding (GFP-CDK4): binds
Substance: HA-β-TrCP1 (from UniProt Q9Y297 1-605)
